From PubChem BioAssay AID1347076 (National Center for Advancing Translational Sciences (NCATS), 2019)
Among all 400,000 compounds or so, about 13,000 (3.2%) were called active. This list was built around the results that the source calls inconclusive (neither active nor inactive); the mix of calls is not that of the screen. Calls come from the whole dose curve; as a rule, active = well fitted cell-killing curve with a large enough effect; inconclusive = small, poorly fitted or top-dose-only effect, or effect the other way; inactive = flat fitted curve, though single readings scatter. Potencies beside an inconclusive call are fits to weak or partial responses and may not hold up.

Experiment: qHTS assay for MDR1-selective chemotherapeutics: Primary screen using the drug-selected MDR subline cells KB-V1; note: nearly all actives have a fitted effect of over 60% in size
Conditions: KB-V1 MDR cells viability, CellTiter-Glo, 72 h; activity change, negative = cytotoxicity: at 46.1 µM (top of the series)
Method in brief: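 Cytotoxicity toward P-gp-expressing KB-V1 cells was determined as loss of CellTiter-Glo luminescence after 72 h at 37 degrees C. Compounds were tested in quantitative HTS format across a concentration range, with curves fitted to normalized data.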
% is set by controls: 0 for no effect and ±100 for the full control effect; potency is the fitted concentration of half-maximal effect.

| Structure (SMILES) | Potency | activity change, negative = cytotoxicity |
| --- | --- | --- |
| O=C(NC12CC3CC(CC(C3)C1)C2)c1ccc(-c2ccc(Cl)cc2)o1 | inconclusive: 20.6 µM [cytotoxic, single point] | – |
| N#CC1C=Cc2c(ccc3ccccc23)N1C(=O)c1ccccc1 (centres undefined) | – | inactive: 0% |
| Cc1occc1-c1nnc(SCC(=O)Nc2nccs2)n1CCc1ccccc1 | inconclusive: 23.1 µM [cytotoxic, single point] | – |
| CC(=O)Nc1cc(NC(C)=O)cc(C(=O)NCC2(N3CCOCC3)CCCCC2)c1 | inconclusive: 11.6 µM [rising, partial curve, poor fit] | – |
| Cc1nc2ccccn2c1C(=O)Nc1ccc(Cl)cc1 | inconclusive: 9.2 µM [cytotoxic, partial curve, poor fit] | – |
| Cc1nc(NC(=O)COC(=O)c2cccs2)c(Cl)cc1Cl | – | inactive: -0.208% |
| CN(C)c1ccc(CCc2ccnc3ccccc23)cc1 | – | inactive: -7.86% |
| CCCOc1ccc(NC(=O)CC2C(=O)N(Cc3ccccc3)C(=S)N2Cc2cccs2)cc1 (centres undefined) | inconclusive: 29.1 µM [cytotoxic, single point] | – |
| COc1ccc(OC(C)C(=O)N(C)Cc2nc(-c3ccccc3)no2)cc1 (centres undefined) | inconclusive: 11.6 µM [cytotoxic, partial curve] | – |
| COc1ccc(NC(=O)c2c(NC(=O)c3cccc(C)c3)sc3c2CCCC3)cc1 | inconclusive: 20.6 µM [rising, partial curve, poor fit] | – |
| Cc1ccc(C(=O)CC(C(=O)O)n2cnc([N+](=O)[O-])n2)cc1 (centres undefined) | inconclusive: 1.3 µM [rising, full curve, poor fit] | – |
| CC(C)(C)N1C(=O)c2c(C(=O)OCc3ccccc3)[nH]c(-c3ccccc3)c2C1=O | – | inactive: 0.678% |
| Cc1cc2c(cc1C)-c1nnnn1C(N1CCC(Cc3ccccc3)CC1)C(=O)N2 (centres undefined) | inconclusive: 11.6 µM [cytotoxic, partial curve] | – |
| CCCCCCCCN1C(=O)[C@H](CC(=O)N2CCOCC2)C[C@@]2(C(=O)OCC)CCCC=C12 | – | inactive: -27.5% |
| CN1CC(=O)NC1=NC(=O)c1ccc(Cl)c(S(=O)(=O)N2CCCCCC2)c1 | inconclusive: 11.6 µM [cytotoxic, partial curve] | – |
| COc1cc2nc(SCC(=O)Nc3cccc(C)c3)n3nc(-c4ccccc4)nc3c2cc1OC | inconclusive: 23.1 µM [rising, single point] | – |
| CCCn1c(N2CCN(C(=O)/C=C/C(=O)O)CC2)nc2ccccc21 | – | inactive: -14.9% |
| COc1ccccc1N1CCN(S(=O)(=O)CCNC(=O)CCCc2ccccc2)CC1 | – | inconclusive: -43.9% [cytotoxic] |
| O=C(NCc1cccc(Cl)c1)C1Cc2c(-c3ccc(Cl)cc3)ccnc2O1 (centres undefined) | inconclusive: 29.1 µM [cytotoxic, single point] | – |

Quoted at random: 2 records from the list, in no set order.

| Structure (SMILES) | Potency | activity change, negative = cytotoxicity |
| --- | --- | --- |
| COc1cc2nc(SCC(=O)Nc3cccc(C)c3)n3nc(-c4ccccc4)nc3c2cc1OC | inconclusive: 23.1 µM [rising, single point] | – |
| O=C(NC12CC3CC(CC(C3)C1)C2)c1ccc(-c2ccc(Cl)cc2)o1 | inconclusive: 20.6 µM [cytotoxic, single point] | – |
